These results are taken from PubChem BioAssay AID256 (DTP/NCI, 2004).

The list shows only some results of the screen, not a fair sample: it gathers tests that were run many times, whatever their T/C, doses with no T/C, and many T/C values between a quarter and a half above the control. Other doses and runs of a compound stand elsewhere. T/C is the treated group as % of the vehicle group. Some entries give survivors of the animals treated and no T/C: the source holds a T/C of zero for them, seemingly a mark for toxic or unscored doses. Some doses without a T/C left all or most animals alive at the check, yet need not have been tolerated: survival well below the control is almost never listed, so the zero probably covers shortened survival too. Counts of survivors are from the toxicity check (mostly the fifth day) where no day follows; animals may have died later. Schedule codes are those of the source, read here as Q, the interval in days (D) or hours (H), X, the number of doses. Some structures stand for samples that the source files as different forms (salt, stereo form or complex); doses refer to the form tested. Where survival is the endpoint, this PubChem deposit counts one and a half times the control or more as active, and values a quarter to a half above the control carry no call in these data; other NCI protocols may use other cut-offs. Signs of the kind (2×) count equal records among those shown. Some entries were tested several times; the values are given in rising order.

The test relates to CD2F1 mice, L1210 leukemia ip, survival T/C. The experiment in a line: NCI In Vivo Anticancer Drug Screen. Data for tumor model L1210 Leukemia (intraperitoneal) in CD2F1 (CDF1) mice. The following applies: higher T/C = longer survival. A digest of the protocol:
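Ratio T/C, where T is the treated-group value and C the vehicle-dosed control value, from mice implanted with a transplantable tumor.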

Setting [1] is: T/C endpoint: mean survival time, dose: 400.0 mg/kg/injection, schedule: Q01DX001 (ip), vehicle: saline with Tween-80.
Setting [2] is: T/C endpoint: mean survival time, dose: 50.0 mg/kg/injection, schedule: Q04DX003 (ip), vehicle: saline with Tween-80.
[3] abbreviates: T/C endpoint: mean survival time, dose: 100.0 mg/kg/injection, schedule: Q04DX003 (ip), vehicle: saline with Tween-80.
The mark [4] stands for this setting: T/C endpoint: mean survival time, dose: 200.0 mg/kg/injection, schedule: Q04DX003 (ip), vehicle: saline with Tween-80.
[5] abbreviates: T/C endpoint: mean survival time, dose: 400.0 mg/kg/injection, schedule: Q01DX009 (ip), vehicle: saline with Tween-80.
Setting [6] is: T/C endpoint: mean survival time, dose: 100.0 mg/kg/injection, schedule: Q01DX009 (ip), vehicle: saline with Tween-80.
[7] abbreviates: T/C endpoint: mean survival time, dose: 200.0 mg/kg/injection, schedule: Q01DX009 (ip), vehicle: saline with Tween-80.
Where [8] appears, read: T/C endpoint: mean survival time, dose: 400.0 mg/kg/injection, schedule: Q04DX003 (ip), vehicle: saline with Tween-80.
Where [9] appears, read: T/C endpoint: mean survival time, dose: 400.0 mg/kg/injection, schedule: Q04DX002 (ip), vehicle: saline with Tween-80.

Regarding `NCCN1c2ccccc2Sc2ccccc21`, the survivor count is 0 of 6 (T/C endpoint: mean survival time, dose: 100.0 mg/kg/injection, schedule: Q01DX009 (ip), vehicle: other) and 0 of 6 (T/C endpoint: mean survival time, dose: 200.0 mg/kg/injection, schedule: Q01DX009 (ip), vehicle: other).
For `CCOC12c3c4cccc3Oc3cccc(c31)S(=O)(=O)c1cccc(c12)O4`, the survivor count under setting [1] is 6 of 6.
For `C=CC1OC2CCCCC2O1` (stereo not given), the survivor count was 0 of 6 (T/C endpoint: mean survival time, dose: 200.0 mg/kg/injection, schedule: Q01DX001 (ip), vehicle: acetone) and 1 of 6 (T/C endpoint: mean survival time, dose: 400.0 mg/kg/injection, schedule: Q01DX001 (ip), vehicle: acetone).
Regarding `CCCCCCCCCCCCCCCCCC[N+](C)(C)C` (tested in a mixture with another compound), the survivor count under setting [2] was 0 of 6, the survivor count under setting [3] is reported as 0 of 6 and the survivor count under setting [4] is listed as 0 of 6.
Consider `O=C(O)CCc1cc([N+](=O)[O-])c(O)c([N+](=O)[O-])c1`, for which the survivor count under setting [5] is listed as 1 of 6.
As for `Cc1ccc(S(=O)(=O)C2C=CC=CC=C2)cc1`, the survivor count under setting [6] is given as 5 of 6, the survivor count under setting [7] was 1 of 6 and the survivor count under setting [5] is given as 0 of 6.
In the case of `Cc1ccc(C2=CSC3=NCCN23)cc1Cl`, the survivor count (T/C endpoint: median survival time, dose: 100.0 mg/kg/injection, schedule: Q01DX005 (ip), vehicle: saline) is reported as 0 of 6.
For `CC(C)=CCNc1ncnc2c1ncn2C1OC(CO)C(O)C1O` (stereo not given), the survivor count reads like this: under setting [7], 1 of 6; under setting [5], 0 of 6.
With `C/C(=N/N)c1ccc(Br)cc1`, the survivor count runs as follows: under setting [3], 0 of 6; (T/C endpoint: mean survival time, dose: 150.0 mg/kg/injection, schedule: Q04DX003 (ip), vehicle: saline with Tween-80) 0 of 6; under setting [4], 0 of 6; (T/C endpoint: mean survival time, dose: 225.0 mg/kg/injection, schedule: Q04DX003 (ip), vehicle: saline with Tween-80) 0 of 6; (T/C endpoint: mean survival time, dose: 335.0 mg/kg/injection, schedule: Q04DX003 (ip), vehicle: saline with Tween-80) 0 of 6; under setting [8], 0 of 6.
For the compound `CC(=O)[O][Hg][c]1s[c]([Hg][O]C(C)=O)[c]([Hg][O]C(C)=O)[c]1[Hg][O]C(C)=O`, the survivor count (T/C endpoint: mean survival time, dose: 12.5 mg/kg/injection, schedule: Q04DX003 (ip), vehicle: saline with Tween-80) was 3 of 6; the survivor count (T/C endpoint: mean survival time, dose: 25.0 mg/kg/injection, schedule: Q04DX003 (ip), vehicle: saline with Tween-80) is recorded as 3 of 6; the survivor count (T/C endpoint: mean survival time, dose: 50.0 mg/kg/injection, schedule: Q01DX009 (ip), vehicle: Klucel (hydroxypropylcellulose) (HPC)) is 0 of 6.
In the case of `COC1CCC([NH-])(C[NH-])C(c2ccc3c(c2)OCO3)O1.[Cl][Pt+2][Cl]` (stereo not given), the survivor count (T/C endpoint: median survival time, dose: 280.0 mg/kg/injection, schedule: Q04DX003 (ip), vehicle: saline with Tween-80) is on record as 4 of 4.
For `C=C1CC2(CCC23COC(=O)C3=C)OC1=O` (stereo not given), the survivor count by setting is: (T/C endpoint: mean survival time, dose: 25.0 mg/kg/injection, schedule: Q01DX001 (ip), vehicle: other) 0 of 3; (T/C endpoint: mean survival time, dose: 50.0 mg/kg/injection, schedule: Q01DX001 (ip), vehicle: other) 0 of 3.
Consider `CC(=O)OC(Cc1nc2ccccc2s1)(C(F)(F)F)C(F)(F)F`, for which the survivor count is listed as 1 of 3 (T/C endpoint: mean survival time, dose: 25.0 mg/kg/injection, schedule: Q04DX002 (ip), vehicle: saline with Tween-80); 0 of 3 (T/C endpoint: mean survival time, dose: 50.0 mg/kg/injection, schedule: Q04DX002 (ip), vehicle: saline with Tween-80); 0 of 6 under setting [6]; 0 of 3 (T/C endpoint: mean survival time, dose: 100.0 mg/kg/injection, schedule: Q04DX002 (ip), vehicle: saline with Tween-80); 0 of 6 under setting [7]; 0 of 3 (T/C endpoint: mean survival time, dose: 200.0 mg/kg/injection, schedule: Q04DX002 (ip), vehicle: saline with Tween-80). The survivor count is given as 0 of 6 under setting [5] and 0 of 3 under setting [9].
`N#Cc1[nH]nc2ncnc(N)c12`: the survivor count is on record as 6 of 6 under setting [6], 2 of 6 under setting [7] and 1 of 6 under setting [5].
Take `CC(C)C(O)c1ccccc1` (stereo not given): the survivor count is recorded as 2 of 3 (T/C endpoint: mean survival time, dose: 200.0 mg/kg/injection, schedule: Q01DX005 (ip), vehicle: saline with Tween-80) and 0 of 3 under setting [9].
As for `CC12CCC(C1)C(C)(C)C2(O)c1ccccc1` (stereo not given), the survivor count under setting [4] is recorded as 2 of 6 and the survivor count under setting [8] was 1 of 6.
`CCC1=NNC(=O)C1(Br)Br`: the survivor count was 1 of 6 under setting [2], 1 of 6 under setting [3] and 0 of 6 under setting [4].
Turning to `CCCCCCCCCCCCN(C)C`, the survivor count was 4 of 6 under setting [6] and 0 of 6 (T/C endpoint: mean survival time, dose: 200.0 mg/kg/injection, schedule: Q01DX001 (ip), vehicle: saline).
With `C[C@]12CCC(=O)C=C1CC[C@@H]1[C@@H]2[C@@H](O)C[C@@]2(C)[C@H]1CC[C@]2(O)C(=O)COP(=O)(O)OCC1OC(n2ccc(N)nc2=O)C(O)C1O` (stereo not given in full), the T/C (T/C endpoint: mean survival time, dose: 20.0 mg/kg/injection, schedule: Q01DX005 (ip), vehicle: other) is 126 % of control; the T/C (T/C endpoint: mean survival time, dose: 30.0 mg/kg/injection, schedule: Q01DX005 (ip), vehicle: other) was 129 % of control; the T/C (T/C endpoint: mean survival time, dose: 40.0 mg/kg/injection, schedule: Q01DX005 (ip), vehicle: other) was 144 % of control; the T/C (T/C endpoint: mean survival time, dose: 60.0 mg/kg/injection, schedule: Q01DX005 (ip), vehicle: other) was 144 and 146 % of control.
For the compound `C=C(C)CNC1=C(C)C(=O)C2=C(C1=O)[C@H](COC(N)=O)[C@]1(OC)[C@@H]3N[C@@H]3CN21`, the T/C is 138 % of control (T/C endpoint: mean survival time, dose: 6.0 mg/kg/injection, schedule: Q01DX001 (ip), vehicle: distilled water + Tween-80) and 127 % of control (T/C endpoint: mean survival time, dose: 24.0 mg/kg/injection, schedule: Q01DX001 (ip), vehicle: distilled water + Tween-80). Under “T/C endpoint: mean survival time, dose: 36.0 mg/kg/injection, schedule: Q01DX001 (ip), vehicle: distilled water + Tween-80”, the survivor count is recorded as 5 of 6.
Turning to `COc1ccc(C2N(C)CCCN2C)c(OC)c1`, the survivor count was 1 of 6 under setting [3], 0 of 6 under setting [4] and 0 of 6 under setting [8].
As to `[Cl][Pt+2][Cl].[NH-]C(C(=O)O)c1ccccc1.[NH-]C(C(=O)O)c1ccccc1` (stereo not given), the survivor count (T/C endpoint: median survival time, dose: 200.0 mg/kg/injection, schedule: Q04DX003 (ip), vehicle: saline) is 5 of 6.
For `O=C1C(O)=C(c2ccccc2C(=O)O)C(=O)C(O)=C1c1ccccc1C(=O)O`, the survivor count reads like this: under setting [7], 1 of 3; under setting [5], 0 of 3.
As for `COc1cccc2c1C(=O)c1c(O)c3c(c(O)c1C2=O)C[C@@](O)(C(O)CO)C[C@@H]3OC1CC(N(Cc2ccccc2)Cc2ccccc2)C(O)C(C)O1` (stereo not given in full), the T/C reads like this: (T/C endpoint: median survival time, dose: 12.5 mg/kg/injection, schedule: Q01DX009 (ip), vehicle: water) 127 % of control; (T/C endpoint: median survival time, dose: 25.0 mg/kg/injection, schedule: Q01DX009 (ip), vehicle: water) 134 % of control (2×); (T/C endpoint: median survival time, dose: 50.0 mg/kg/injection, schedule: Q01DX009 (ip), vehicle: water) 144 and 145 % of control. Further, the survivor count runs as follows: (T/C endpoint: median survival time, dose: 200.0 mg/kg/injection, schedule: Q01DX009 (ip), vehicle: water) 3 of 6; (T/C endpoint: median survival time, dose: 400.0 mg/kg/injection, schedule: Q01DX009 (ip), vehicle: water) 1 of 6.
For `CCCn1c(O)c(C=N)c(=O)[nH]c1=O`, the survivor count under setting [5] was 2 of 6.
For `O=C(Nc1cc(Cl)c(Cl)cc1Cl)Nc1cc(Cl)ccc1Oc1ccc(Cl)cc1S(=O)(=O)O`, the survivor count under setting [1] is on record as 2 of 6.
Take `O=C(O)/C=N/NS(=O)(=O)c1ccccc1`: where the note is “T/C endpoint: mean survival time, dose: 200.0 mg/kg/injection, schedule: Q01DX009 (ip), vehicle: water”, the survivor count was 5 of 6.
Take `CCN(CC)Cc1ccccn1`: the survivor count is, setting by setting: (T/C endpoint: mean survival time, dose: 200.0 mg/kg/injection, schedule: Q04DX003 (ip), vehicle: saline) 2 of 6; (T/C endpoint: mean survival time, dose: 400.0 mg/kg/injection, schedule: Q04DX003 (ip), vehicle: saline) 0 of 6.
